Results published in PubChem BioAssay AID2685 (National Center for Advancing Translational Sciences (NCATS), 2010).
The other results are listed elsewhere or left out. Further columns of the screen follow, without active or inactive calls. Compounds called inactive in the main read-out are mostly missing here. The note in brackets gives the kind of curve behind each potency; many fits are weak.

Assay: qHTS Assay for Lipid Storage Modulators in Drosophila S3 Cells;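 for cell number change: cells counted by Cell Tracker Red CMTPX staining in the red channel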
Settings: BODIPY lipid droplet fluorescence, 18-24 h; for cell number change: measured here: cell count max response, cells fed with added oleic acid
How it was run: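 Drosophila S3 cells loaded with oleic acid (400 uM, as added) and compounds at several concentrations; lipid droplets imaged by 488-nm laser-scanning cytometry, 500–530 nm intensity and object ratio to cell channel. Percent activity normalized to 20 uM Triacsin C.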

[1] = measured here: cell number channel AC50, cells fed with added oleic acid
[2] = measured here: lipid fluorescence (Fed channel) AC50, cells fed with added oleic acid

Compound	cell number change	AC50 [1]	AC50 [2]
CN(C(=O)Cn1nnc(-c2ccccc2)n1)C1CCS(=O)(=O)C1 (stereo not given)	-43.7%	0.231 µM [falling, full curve]	0.82 µM [falling, full curve]
COc1ccccc1-n1c(SCC(N)=O)nc2sc3c(c2c1=O)CCC3	10.5%	1.16 µM [rising, partial curve, poor fit]	–
Cc1[nH]c(=O)[nH]c(=O)c1/C=N/NC(=O)[C@@H](N)CC(C)C	5.68%	–	0.116 µM [falling, full curve, poor fit]
CN(C(=O)CSc1nnc(-c2cccs2)o1)C1CCS(=O)(=O)C1 (stereo not given)	-25.7%	3.26 µM [falling, full curve, poor fit]	–
COc1cc(C(C)=O)ccc1OCC(O)CN1CCN(c2ccc(C)cc2C)CC1 (stereo not given)	39.8%	18.4 µM [rising, single point]	–
CCc1nnc(NS(=O)(=O)c2ccc(N3C(=O)c4ccc(C(=O)O)cc4C3=O)cc2)s1	-42.5%	1.16 µM [falling, full curve]	0.461 µM [falling, full curve]
CCOc1ncccc1C(=O)NCCCSc1ccccc1	6.38%	–	32.6 µM [rising, single point]
CCc1ccc2[nH]c(=O)c(CN(CCCO)C(=O)NCc3ccccc3)cc2c1	-7.56%	–	–
C=CCN=C(NC#N)SCC(=O)c1cccc(OC)c1	48.8%	29.1 µM [rising, single point]	9.2 µM [rising, partial curve]
CC(=O)c1cccc(NC(=O)CC(C)n2ccnc2)c1 (stereo not given)	–	0.326 µM [rising, full curve, poor fit]	–
Cc1c(NC(=O)COC(=O)/C=C/c2cccc(Cl)c2)c(=O)n(-c2ccccc2)n1C	0.547%	–	–
CN(C)/C=C/C(=O)c1nnn(C2CCCCC2)c1NC1CCCCC1	-71.1%	20.6 µM [falling, single point]	–
CCOC(=O)N1CCN(c2c(NCc3ccc(N(C)C)cc3)c(=O)c2=O)CC1	–	0.164 µM [rising, full curve, poor fit]	0.206 µM [rising, full curve, poor fit]
Cc1ccccc1NC(=O)C(NS(=O)(=O)c1ccc2c(c1)c(=O)n(C)c(=O)n2C)c1ccccc1 (stereo not given)	-15.7%	–	0.0058 µM [rising, full curve, poor fit]
CC(C)(Oc1ccc(Cl)cc1)C(=O)N1CCN(C(=O)c2ccco2)CC1	16.5%	–	–
CN(C)CCCNc1c2c(nc3ccccc13)CCC2	2.11%	–	0.58 µM [falling, single point]
CC(C)CCOc1cccc(OCC(=O)N(C)C2CCS(=O)(=O)C2)c1 (stereo not given)	17.4%	–	10.3 µM [rising, partial curve]
O=C(O)c1cccc(-n2cccc2/C=C2/NC(=O)N(c3ccc(Cl)cc3)C2=O)c1	15.1%	2.06 µM [rising, partial curve, poor fit]	–
COc1ccc(/C=C2/SC(=O)N(CC(=O)NCCC(C)C)C2=O)cc1OC	-39.6%	20.6 µM [falling, single point]	–
CCN(C(=O)COC(=O)/C=C/c1c(C)nn(Cc2ccc(C)cc2)c1C)C1CCS(=O)(=O)C1 (stereo not given)	–	–	6.51 µM [rising, partial curve, poor fit]

A portion from the list above:
Compound	cell number change	AC50 [1]	AC50 [2]
CN(C(=O)CSc1nnc(-c2cccs2)o1)C1CCS(=O)(=O)C1 (stereo not given)	-25.7%	3.26 µM [falling, full curve, poor fit]	–
COc1cc(C(C)=O)ccc1OCC(O)CN1CCN(c2ccc(C)cc2C)CC1 (stereo not given)	39.8%	18.4 µM [rising, single point]	–
CCc1nnc(NS(=O)(=O)c2ccc(N3C(=O)c4ccc(C(=O)O)cc4C3=O)cc2)s1	-42.5%	1.16 µM [falling, full curve]	0.461 µM [falling, full curve]
CCOc1ncccc1C(=O)NCCCSc1ccccc1	6.38%	–	32.6 µM [rising, single point]

Remaining list, next part.

Compound	cell number change	AC50 [1]	AC50 [2]
CCn1c(-c2nn(-c3ccccc3)ccc2=O)n[nH]c1=S	-44.7%	29.1 µM [falling, single point]	25.9 µM [falling, partial curve]
O=C(Nc1c2n(c(=S)n(-c3ccccc3)c1=O)CCCCC2)c1ccccc1	–	–	0.103 µM [rising, partial curve, poor fit]
CC1(C)Oc2ccc(C(=O)NC3CCCC3)cc2N(CC(=O)NC2CCCC2)C1=O	–	–	0.461 µM [rising, single point]
O=C(CSc1nnc2ccc(-c3cccnc3)nn12)Nc1cccc(F)c1	33.6%	29.1 µM [rising, single point]	–
O=C(NCc1ccc2c(c1)OCO2)c1cccc(S(=O)(=O)N2CCCC2)c1	12.4%	–	29.1 µM [rising, single point]
O=S(=O)(NCc1ccccn1)c1ccc(F)cc1	-40.2%	4.11 µM [falling, full curve, poor fit]	5.8 µM [falling, partial curve]
O=c1c(Cc2ccccc2)c(O)ccn1Cc1ccc2c(c1)OCO2	-1.23%	–	–
O=C(NNC(=O)c1cc2ccccc2cc1O)Nc1ccc(Br)cc1	-20.3%	–	–
COc1ccc(NC(=O)CN(C)C(=O)CNC(=O)c2cccs2)cc1	-8.84%	–	20.6 µM [falling, single point]
COc1ccccc1CN(C)C(=O)c1cc(-c2cccs2)nc2ccccc12	–	–	5.62 µM [rising, single point]
CC(C)CC(NS(=O)(=O)c1ccccc1S(=O)(=O)NC(CC(C)C)C(=O)O)C(=O)O (stereo not given)	30.1%	0.0206 µM [rising, full curve, poor fit]	18.4 µM [falling, single point]
COc1ccc(C2CC(c3ccccc3)=NN2c2ccc(N)cc2)cc1 (stereo not given)	20.9%	–	4.11 µM [rising, partial curve]
COc1ccc(N(CC(=O)Nc2cccc3ccccc23)S(C)(=O)=O)c(OC)c1	16.8%	–	29.1 µM [rising, single point]
CCN(CC)S(=O)(=O)c1ccc(-c2nnc(SCC(=O)c3ccc(OC)cc3)o2)cc1	17.8%	3.66 µM [rising, single point]	–
CCCN1C/C(=C/c2cccc([N+](=O)[O-])c2)C(=O)/C(=C/c2cccc([N+](=O)[O-])c2)C1	-33.7%	0.58 µM [falling, partial curve]	13 µM [falling, partial curve]
COc1cccc(N2C(=O)CC(N3CCC(c4nc5ccccc5[nH]4)CC3)C2=O)c1 (stereo not given)	-6%	–	0.0517 µM [falling, full curve, poor fit]
Cc1ccc(COn2c(-c3ccc(Cl)cc3Cl)nc3ncccc32)cc1	-5.31%	–	–
COc1ccc(NC(=O)CN(C)C(=O)c2ccccc2CCc2ccccc2)cc1	59.4%	16.4 µM [rising, partial curve]	–
CC1CCCN(C(=O)COC(=O)CNC(=O)c2ccc(Br)cc2)C1 (stereo not given)	-24.9%	–	0.092 µM [falling, full curve, poor fit]
O=C(Nc1ccc2nc(-c3ccccc3)oc2c1)c1ccco1	6.36%	–	2.59 µM [rising, partial curve]

Compound	cell number change	AC50 [1]	AC50 [2]
Cc1ccc2nc(COc3ccc(Cl)cc3)cc(=O)n2c1	15.2%	–	–
COCCSc1nnc(NC(=O)COC)s1	–	–	4.61 µM [falling, partial curve]
COc1ccc(C2=NN(C(=O)c3cccc([N+](=O)[O-])c3)C(c3cccc([N+](=O)[O-])c3)C2)cc1 (stereo not given)	–	1.46 µM [rising, partial curve]	0.58 µM [rising, full curve, poor fit]
Cc1ccc(O)c(C(=O)c2cnn(C(=O)c3cccc(S(=O)(=O)N(C)C)c3)c2)c1	21.9%	–	–
Cc1ccc(NC(=O)OCc2cn(-c3ccc(Cl)cc3)nn2)cc1	-45.5%	–	–
Cc1nn(-c2ccccn2)c2c1C(c1ccsc1)C1=C(CCCC1=O)N2 (stereo not given)	0.609%	–	0.0651 µM [rising, full curve]
O=C(O)C1C2CCC(O2)C1C(=O)Nc1ccccc1Br (stereo not given)	2.38%	–	29.1 µM [rising, single point]
COc1cc2[nH]c(=S)nc(NCc3ccccn3)c2cc1OC	-10.5%	–	0.00461 µM [falling, full curve, poor fit]
O=C(c1ccc(F)cc1)c1cnc(Nc2ccccc2)s1	21.3%	–	0.651 µM [falling, single point]
CC(NC(=O)[C@H](C)N1C(=O)N2CCc3c([nH]c4ccccc34)[C@@]2(C)C1=O)c1ccccc1 (stereo not given in full)	0.291%	–	2.31 µM [falling, partial curve, poor fit]
CCc1ccc(NC2CC(=O)N(CCc3ccc(OC)c(OC)c3)C2=O)cc1 (stereo not given)	44.2%	–	–
CCc1ccc(/C=C2/Sc3ccccc3N(CC(=O)NCCCOC)C2=O)cc1	–	0.731 µM [falling, single point]	–
CCOC(=O)C1C(=O)NCC2CCCC21 (stereo not given)	-16.5%	–	2.06 µM [falling, partial curve, poor fit]
C=CCSC1=N/C(=C/c2ccsc2)C(=O)N1c1ccccc1	12.2%	–	1.16 µM [falling, single point]
CCOc1ccc(C(O)(c2ccccc2OC)C(CN2CCCC2)c2ccccc2)cc1 (stereo not given)	-10.1%	–	29.1 µM [rising, single point]
Cc1ccc(C)c(OCC(=O)Nc2ccc(N3CCOCC3)cc2N2CCOCC2)c1	18.8%	–	29.1 µM [rising, partial curve, poor fit]
CCOc1cccc2c1OC1(C)CC2NC(=O)N1c1cccc(Cl)c1 (stereo not given)	-23.9%	–	10.3 µM [falling, partial curve, poor fit]
CCc1nnc(NC(=O)CSc2ccc(-c3nc4ccc(C)cc4[nH]3)cn2)s1	-29.7%	–	29.1 µM [falling, single point]
CCOC(=O)c1sc2nc3n(c(=O)c2c1C)CCC(C)CC3 (stereo not given)	6.66%	–	0.00411 µM [falling, full curve, poor fit]
CCC(=O)Nc1ccc2c(c1)ncn2C	-9.6%	–	4.11 µM [falling, full curve]
